Experimental findings from article PMC13193388, “Dimerization‐dependent NOTCH receptor transactivation unveils a class of highly selective NOTCH signalling inhibitors” (The Febs Journal, 2025) are described below.

The chains behind the UniProt entries cited, without tags or fusion partners. Residues count along the entry.
UniProt Q9UM47, residues 40-2321: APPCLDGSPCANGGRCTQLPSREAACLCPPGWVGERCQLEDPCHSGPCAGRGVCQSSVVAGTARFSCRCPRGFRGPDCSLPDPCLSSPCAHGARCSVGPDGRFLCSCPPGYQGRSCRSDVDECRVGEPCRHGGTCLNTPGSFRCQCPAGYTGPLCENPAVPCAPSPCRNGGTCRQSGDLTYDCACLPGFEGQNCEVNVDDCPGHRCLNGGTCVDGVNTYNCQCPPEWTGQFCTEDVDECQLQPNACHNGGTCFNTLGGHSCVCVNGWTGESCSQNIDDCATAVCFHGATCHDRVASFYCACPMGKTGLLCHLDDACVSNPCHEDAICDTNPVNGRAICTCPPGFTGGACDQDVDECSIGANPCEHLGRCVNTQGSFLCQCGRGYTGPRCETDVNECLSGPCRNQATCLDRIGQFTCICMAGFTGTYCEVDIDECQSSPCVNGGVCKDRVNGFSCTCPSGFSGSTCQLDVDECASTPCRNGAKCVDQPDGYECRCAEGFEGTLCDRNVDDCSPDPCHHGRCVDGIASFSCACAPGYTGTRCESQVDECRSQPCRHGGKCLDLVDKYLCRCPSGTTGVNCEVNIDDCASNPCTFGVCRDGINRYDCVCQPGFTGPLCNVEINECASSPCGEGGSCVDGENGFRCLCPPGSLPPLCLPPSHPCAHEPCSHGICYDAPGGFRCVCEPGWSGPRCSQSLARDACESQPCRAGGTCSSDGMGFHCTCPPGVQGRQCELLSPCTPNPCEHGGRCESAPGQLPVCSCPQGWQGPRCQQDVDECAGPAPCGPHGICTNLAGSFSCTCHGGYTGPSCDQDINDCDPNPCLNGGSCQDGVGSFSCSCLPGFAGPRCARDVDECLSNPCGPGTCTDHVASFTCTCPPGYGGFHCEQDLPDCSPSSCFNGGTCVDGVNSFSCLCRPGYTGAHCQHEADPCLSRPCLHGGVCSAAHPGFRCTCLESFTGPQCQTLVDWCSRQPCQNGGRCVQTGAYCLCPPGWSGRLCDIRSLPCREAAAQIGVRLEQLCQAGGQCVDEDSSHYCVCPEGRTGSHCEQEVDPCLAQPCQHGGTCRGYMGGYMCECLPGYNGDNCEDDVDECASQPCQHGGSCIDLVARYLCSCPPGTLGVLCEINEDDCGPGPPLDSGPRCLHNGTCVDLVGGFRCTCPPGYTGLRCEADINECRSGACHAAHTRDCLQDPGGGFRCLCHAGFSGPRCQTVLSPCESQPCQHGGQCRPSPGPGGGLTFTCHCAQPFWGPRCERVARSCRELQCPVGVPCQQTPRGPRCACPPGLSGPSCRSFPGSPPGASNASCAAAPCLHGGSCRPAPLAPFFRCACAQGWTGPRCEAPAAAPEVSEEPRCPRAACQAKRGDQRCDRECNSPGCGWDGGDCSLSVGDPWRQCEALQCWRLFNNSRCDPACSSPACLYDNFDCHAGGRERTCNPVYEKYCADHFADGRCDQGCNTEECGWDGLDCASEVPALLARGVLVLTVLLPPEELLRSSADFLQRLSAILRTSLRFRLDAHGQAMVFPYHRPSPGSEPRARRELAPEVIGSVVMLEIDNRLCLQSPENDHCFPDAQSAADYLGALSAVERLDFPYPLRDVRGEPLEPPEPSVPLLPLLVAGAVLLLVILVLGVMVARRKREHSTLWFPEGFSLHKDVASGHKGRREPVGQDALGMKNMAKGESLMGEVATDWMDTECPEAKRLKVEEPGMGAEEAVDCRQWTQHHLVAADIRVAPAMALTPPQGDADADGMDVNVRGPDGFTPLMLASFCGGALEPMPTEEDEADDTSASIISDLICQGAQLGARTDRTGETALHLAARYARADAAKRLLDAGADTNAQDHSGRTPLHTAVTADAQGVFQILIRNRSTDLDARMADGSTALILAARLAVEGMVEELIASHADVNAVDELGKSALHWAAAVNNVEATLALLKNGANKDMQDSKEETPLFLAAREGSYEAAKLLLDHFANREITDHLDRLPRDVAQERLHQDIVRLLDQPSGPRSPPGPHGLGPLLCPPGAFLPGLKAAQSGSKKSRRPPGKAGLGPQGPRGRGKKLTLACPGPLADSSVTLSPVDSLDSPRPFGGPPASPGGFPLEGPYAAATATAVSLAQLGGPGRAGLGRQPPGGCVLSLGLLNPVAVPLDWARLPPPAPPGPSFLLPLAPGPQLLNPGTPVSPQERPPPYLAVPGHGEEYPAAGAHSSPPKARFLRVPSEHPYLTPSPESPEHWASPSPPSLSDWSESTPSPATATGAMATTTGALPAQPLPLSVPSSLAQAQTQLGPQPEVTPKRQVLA

No constants are given. Whether binding was seen depends on the method and setting. In cells and extracts the contact can be indirect.

This test concerns the target HIS epitope-tagged full-length NOTCH3 (human) (UniProt Q9UM47). The test is described as follows: co-IP; HA and HIS epitope-tagged constructs cotransfected into 293T cells; immunoprecipitation, Western blot. On the technique in general: In western blotting, separated proteins are transferred to a membrane and probed.

On to “HA epitope-tagged full-length NOTCH3 lacking the dimerization motif (from UniProt Q9UM47) (receptor)”, for which the binding result is recorded as “no binding”.
